No constants are given. Whether binding was seen depends on the method and setting. In cells and extracts the contact can be indirect. Some binding calls cover weakened binding; strength is not graded here.
Target: Acyl-coenzyme A (CoA) synthetase long-chain family member 4 (human (endogenous in PL1 and PG7 patient-derived glioma cells)) (UniProt O60488)
Assay: co-IP; PL1 and PG7 cells lysed in RIPA buffer with PMSF; lysate supernatant with Acsl4 antibody (ab155282) or IgG overnight at 4 °C, protein A/G plus agarose 6 h at 4 °C; immunoblotting

Sequences of proteins named here, by UniProt entry; tags and fusion partners are left off.
UniProt O60488: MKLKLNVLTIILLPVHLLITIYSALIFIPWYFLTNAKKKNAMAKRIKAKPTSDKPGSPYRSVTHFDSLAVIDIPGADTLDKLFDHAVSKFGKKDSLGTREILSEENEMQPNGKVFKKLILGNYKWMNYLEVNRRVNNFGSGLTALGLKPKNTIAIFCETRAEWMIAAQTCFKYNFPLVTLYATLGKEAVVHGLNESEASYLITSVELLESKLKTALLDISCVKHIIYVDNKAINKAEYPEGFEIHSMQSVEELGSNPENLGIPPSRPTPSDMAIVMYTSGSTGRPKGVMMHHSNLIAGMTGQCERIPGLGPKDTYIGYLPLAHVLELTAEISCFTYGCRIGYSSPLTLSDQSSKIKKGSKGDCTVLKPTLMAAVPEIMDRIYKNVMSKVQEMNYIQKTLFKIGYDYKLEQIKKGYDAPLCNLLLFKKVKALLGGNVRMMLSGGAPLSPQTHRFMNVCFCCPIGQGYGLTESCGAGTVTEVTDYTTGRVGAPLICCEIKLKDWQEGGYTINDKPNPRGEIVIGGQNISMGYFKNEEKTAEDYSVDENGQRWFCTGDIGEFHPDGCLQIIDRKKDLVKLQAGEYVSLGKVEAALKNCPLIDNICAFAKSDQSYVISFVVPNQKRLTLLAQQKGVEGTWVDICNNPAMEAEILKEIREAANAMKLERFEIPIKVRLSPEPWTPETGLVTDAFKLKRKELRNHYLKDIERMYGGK
UniProt O00429: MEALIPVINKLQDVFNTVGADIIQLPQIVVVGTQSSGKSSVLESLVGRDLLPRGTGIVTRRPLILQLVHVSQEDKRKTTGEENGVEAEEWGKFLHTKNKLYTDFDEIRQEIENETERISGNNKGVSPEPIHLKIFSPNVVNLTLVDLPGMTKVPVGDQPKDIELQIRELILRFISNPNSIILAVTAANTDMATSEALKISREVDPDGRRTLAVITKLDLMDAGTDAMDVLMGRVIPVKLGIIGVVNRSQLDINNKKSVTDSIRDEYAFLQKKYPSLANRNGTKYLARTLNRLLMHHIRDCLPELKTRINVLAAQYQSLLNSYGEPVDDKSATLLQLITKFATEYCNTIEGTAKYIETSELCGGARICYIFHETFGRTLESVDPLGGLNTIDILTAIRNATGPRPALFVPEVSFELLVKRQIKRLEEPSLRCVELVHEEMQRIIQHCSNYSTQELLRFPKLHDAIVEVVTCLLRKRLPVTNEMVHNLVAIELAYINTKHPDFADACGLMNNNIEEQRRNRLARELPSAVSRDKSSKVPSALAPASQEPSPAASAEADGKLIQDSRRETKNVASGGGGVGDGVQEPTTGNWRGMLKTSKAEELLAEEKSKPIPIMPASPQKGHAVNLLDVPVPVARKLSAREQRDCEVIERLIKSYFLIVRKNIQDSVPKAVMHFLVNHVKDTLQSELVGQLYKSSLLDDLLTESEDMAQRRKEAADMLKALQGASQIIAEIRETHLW

binding: binds
Substance: dynamin-related protein 1 (from UniProt O00429 1-736)
